Measurements as given in US9669005B2, “Use of naringenin in preparing drugs for preventing and/or treatment abdominal aortic aneurysm” (priority 2013, dated 2017).
For at least one compound, name, drawing or mass did not settle the structure.

Test system: IL-6 and MCP-1
Test: Immunohistochemical staining of IL-6 and MCP-1 on vascular walls, CaPO4 model
Assay type: in vivo
Conditions: CaPO4 daubed mice; immunohistochemistry; FIG. 3B
From the text: IL-6 and MCP-1 are proinflammatory chemotactic factors and cytokines, and they are mainly from vascular walls. MCP-1 can release more matrix metalloproteinase to degrade matrix by recruiting leukocytes, which mediats vascular remodeling and expanding (MacTaggart J N et al. Deletion of ccr2 but not ccr5 or cxcr3 inhibits aortic aneurysm formation Surgery. 2007; 142:284-288; Ishibashi M et al. Bone marrow-derived monocyte chemoattractant protein-1 receptor ccr2 is critical in angiotensin ii-induced acceleration of atherosclerosis and aneurysm formation in hypercholesterolemic mice. Arterioscl throm vasc biol. 2004; 24: e174-178), while IL-6 can enlarge effect of MCP-1 to aggravate the onset of abdominal aortic aneurysms (Tieu B C et al. An adventitial il-6/mcpl amplification loop accelerates macrophage-mediated vascular inflammation leading to aortic dissection in mice. J Clin Invest. 2009; 119:3637-3651). We used histochemical staining to identify the expressions of IL-6 and MCP-1 on vascular walls. IL-6 and MCP-1 were immunohistochemical results of anti-IL-6 and anti-MCP-1 specific antibodies (purchased from Abcam, Cambridge Company, UK), respectively.

Compound: C[C@H]1c2cccc(O)c2C(=O)C2=C(O)[C@]3(O)C(=O)C(C(N)=O)=C(O)[C@@H](N(C)C)[C@@H]3[C@@H](O)[C@@H]21 [doxycycline, reference compound]
- expression of IL-6 and MCP-1 in adventitia in vascular walls: reduce their expressions
